Laboratory results from the supplement of paper PMC4635364.
Counter-ions that a name gives are not always drawn. The list shows a part of the results. Repeats in this data set agree poorly, so a single value says little.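 ReNCell VM, a human fetal ventral-midbrain neural progenitor line, was differentiated without mitogens. Blinded raters scored images stained for doublecortin (early neurons) or tyrosine hydroxylase (dopaminergic neurons) against untreated wells (0 = no change). Scores were averaged across repeats and both raters, and compounds averaging 2 or more were selected as hits for retesting.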

test system: ReNCell VM; assay: neuronal differentiation score (DCX+ cell fraction vs untreated, manual image score) (score (-3 to 3)); higher = more neuronal differentiation; settings: library: Phytochemical; 2 uM; 2 weeks

Neuronal differentiation score, inactive:
COc1ccc(C(=O)O)cc1 [Anisic acid] 0, O=C1C[C@@H](c2ccc(O)cc2)Oc2cc(O)cc(O)c21 [Naringenine] 0, C=C1C[C@]23C[C@@]1(O)CC[C@H]2[C@@]12C=C[C@H](O)[C@@](C)(C(=O)O1)[C@H]2[C@@H]3C(=O)O [Gibberellic acid] 0

same assay, conditions: library: Prestwick; 2 uM; 2 weeks

Neuronal differentiation score, inactive:
CN(C)[C@@H]1C(O)=C(C(=O)NCNCCCC[C@H](N)C(=O)O)C(=O)[C@@]2(O)C(O)=C3C(=O)c4c(O)cccc4[C@@](C)(O)[C@H]3C[C@@H]12 [Lymecycline] 0, CCCC(=O)Nc1ccc(OCC(O)CNC(C)C)c(C(C)=O)c1 (stereo not given) [Acebutolol hydrochloride] 0, Cc1cc(N)c2ccccc2[n+]1CCCCCCCCCC[n+]1c(C)cc(N)c2ccccc21 [Dequalinium dichloride] 0, Nc1ncnc2c1ncn2[C@@H]1O[C@H](CO)[C@@H](O)[C@@H]1O [Vidarabine] 0, CN(C(=O)C(Cl)Cl)c1ccc(OC(=O)c2ccco2)cc1 [Diloxanide furoate] 0, Cc1ccc(C(=O)c2ccc(CC(=O)O)n2C)cc1 [Tolmetin sodium salt dihydrate] 0

same assay, conditions: library: Spectrum; 2 uM; 2 weeks

Neuronal differentiation score, inactive:
O=C(c1cccnc1)N1CCOCC1 0, Cc1c(N(C)C)c(=O)n(-c2ccccc2)n1C 0, CN(C)CCOC(C)(c1ccccc1)c1ccccn1 (stereo not given) 0, COC(=O)CC1C(C)(C)C(OC(C)=O)[C@@H]2[C@@H](OC(C)=O)[C@]34O[C@@]2(O)[C@]1(C)C3CC[C@]1(C)C4=CC(=O)O[C@H]1c1ccoc1 (stereo not given in full) 0, COc1cc(C(=O)NCc2ccc(OCCN(C)C)cc2)cc(OC)c1OC 0, COC(=O)/C=C/C(=O)OC -1, O=C(O)c1cc(=O)c2c(OCC(O)COc3cccc4oc(C(=O)O)cc(=O)c34)cccc2o1 0, O=C(Nc1ccccc1)c1ccccc1O 0, CNc1ccccc1C(=O)N1CCc2c([nH]c3ccccc23)C1=O 0, Nc1c2c(nc3ccccc13)CCCC2 0, CN1C(=O)OC(C)(C)C1=O 0, COc1ccc(-c2cc(=O)c3c(OC)c(OC)c(OC)cc3o2)cc1OC 0, NS(=O)(=O)c1cc2c(cc1Cl)N=CNS2(=O)=O 0, OCCOCCN1CCN(C2=Nc3ccccc3Sc3ccccc32)CC1 0, CO[C@@]1(NC(=O)C(C(=O)O)c2ccc(O)cc2)C(=O)N2C(C(=O)O)=C(CSc3nnnn3C)CO[C@@H]21 (stereo not given in full) 0, CCCCCN(CCCCC)C(=O)C(CCC(=O)O)NC(=O)c1ccc(Cl)c(Cl)c1 (stereo not given) 0, NC(=O)c1ncn([C@@H]2O[C@H](CO)[C@@H](O)[C@H]2O)c1N 0, C=CC1=C(C)c2cc3[nH]c(cc4nc(cc5[nH]c(cc1n2)c(C)c5CCC(=O)O)C(CCC(=O)O)=C4C)c(C)c3C=C 0, COc1ccc(-c2coc3c(OC)c(OC)cc(O)c3c2=O)cc1 -3, COc1ccc(CN2CCN(C(c3ccc(F)cc3)c3ccc(F)cc3)CC2)c(OC)c1OC 0, c1ccc2c(c1)CN1CCCC1=N2 0, COc1cc2nc(N3CCN(C(=O)c4ccco4)CC3)nc(N)c2cc1OC 0, CC(=O)O[C@H]1C[C@@H](OC(C)=O)C(C)(C)[C@@H]2C[C@@H](OC(C)=O)[C@]3(C)[C@H](CC[C@@]4(C)[C@H](c5ccoc5)OC(=O)[C@H]5O[C@@]534)[C@@]12C 0

same assay, conditions: library: Tocriscreen; 2 uM; 2 weeks

Neuronal differentiation score, inactive:
O=C(CCCCCN1C(=O)c2cccc3cccc(c23)C1=O)NO [Scriptaid] 0, c1ccc2sc(N3CCN(Cc4ccc5c(c4)OCO5)CC3)nc2c1 [2-[1-(4-Piperonyl)piperazinyl]benzothiazole] 0, CCc1c2c(nc3ccc(O)cc13)-c1cc3c(c(=O)n1C2)COC(=O)[C@]3(O)CC 0, Fc1ccc([C@@H]2CCNC[C@H]2COc2ccc3c(c2)OCO3)cc1 [Paroxetine maleate] 0

test system: ReNCell VM; assay: dopaminergic neuron differentiation score (TH+ cell fraction vs untreated, manual image score) (score (0 to 3)); higher = more TH+ dopaminergic neuron differentiation; settings: library: Phytochemical; 2 uM; 4 weeks; BDNF 10 ng/ml + GDNF 10 ng/ml

Dopaminergic neuron differentiation score, inactive:
COc1ccc(C(=O)O)cc1 [Anisic acid] 0, O=C1C[C@@H](c2ccc(O)cc2)Oc2cc(O)cc(O)c21 [Naringenine] 0, C=C1C[C@]23C[C@@]1(O)CC[C@H]2[C@@]12C=C[C@H](O)[C@@](C)(C(=O)O1)[C@H]2[C@@H]3C(=O)O [Gibberellic acid] 0

same assay, conditions: library: Prestwick; 2 uM; 4 weeks; BDNF 10 ng/ml + GDNF 10 ng/ml

Dopaminergic neuron differentiation score, inactive:
CN(C)[C@@H]1C(O)=C(C(=O)NCNCCCC[C@H](N)C(=O)O)C(=O)[C@@]2(O)C(O)=C3C(=O)c4c(O)cccc4[C@@](C)(O)[C@H]3C[C@@H]12 [Lymecycline] 0, CCCC(=O)Nc1ccc(OCC(O)CNC(C)C)c(C(C)=O)c1 (stereo not given) [Acebutolol hydrochloride] 0, Cc1cc(N)c2ccccc2[n+]1CCCCCCCCCC[n+]1c(C)cc(N)c2ccccc21 [Dequalinium dichloride] 0, Nc1ncnc2c1ncn2[C@@H]1O[C@H](CO)[C@@H](O)[C@@H]1O [Vidarabine] 0, CN(C(=O)C(Cl)Cl)c1ccc(OC(=O)c2ccco2)cc1 [Diloxanide furoate] 0, Cc1ccc(C(=O)c2ccc(CC(=O)O)n2C)cc1 [Tolmetin sodium salt dihydrate] 0
